According to paper PMC7782728:
No constants are given. Whether binding was seen depends on the method and setting. Some results given as binding are weak or reduced against the parent protein; the word gives no strength.

Protein sequences, listed by entry. Tags and fused reporters are not part of them. Lines headed by an entry give the natural chain unless they say otherwise; changes in a name come on top. Residues count along the entry.
UniProt P11087: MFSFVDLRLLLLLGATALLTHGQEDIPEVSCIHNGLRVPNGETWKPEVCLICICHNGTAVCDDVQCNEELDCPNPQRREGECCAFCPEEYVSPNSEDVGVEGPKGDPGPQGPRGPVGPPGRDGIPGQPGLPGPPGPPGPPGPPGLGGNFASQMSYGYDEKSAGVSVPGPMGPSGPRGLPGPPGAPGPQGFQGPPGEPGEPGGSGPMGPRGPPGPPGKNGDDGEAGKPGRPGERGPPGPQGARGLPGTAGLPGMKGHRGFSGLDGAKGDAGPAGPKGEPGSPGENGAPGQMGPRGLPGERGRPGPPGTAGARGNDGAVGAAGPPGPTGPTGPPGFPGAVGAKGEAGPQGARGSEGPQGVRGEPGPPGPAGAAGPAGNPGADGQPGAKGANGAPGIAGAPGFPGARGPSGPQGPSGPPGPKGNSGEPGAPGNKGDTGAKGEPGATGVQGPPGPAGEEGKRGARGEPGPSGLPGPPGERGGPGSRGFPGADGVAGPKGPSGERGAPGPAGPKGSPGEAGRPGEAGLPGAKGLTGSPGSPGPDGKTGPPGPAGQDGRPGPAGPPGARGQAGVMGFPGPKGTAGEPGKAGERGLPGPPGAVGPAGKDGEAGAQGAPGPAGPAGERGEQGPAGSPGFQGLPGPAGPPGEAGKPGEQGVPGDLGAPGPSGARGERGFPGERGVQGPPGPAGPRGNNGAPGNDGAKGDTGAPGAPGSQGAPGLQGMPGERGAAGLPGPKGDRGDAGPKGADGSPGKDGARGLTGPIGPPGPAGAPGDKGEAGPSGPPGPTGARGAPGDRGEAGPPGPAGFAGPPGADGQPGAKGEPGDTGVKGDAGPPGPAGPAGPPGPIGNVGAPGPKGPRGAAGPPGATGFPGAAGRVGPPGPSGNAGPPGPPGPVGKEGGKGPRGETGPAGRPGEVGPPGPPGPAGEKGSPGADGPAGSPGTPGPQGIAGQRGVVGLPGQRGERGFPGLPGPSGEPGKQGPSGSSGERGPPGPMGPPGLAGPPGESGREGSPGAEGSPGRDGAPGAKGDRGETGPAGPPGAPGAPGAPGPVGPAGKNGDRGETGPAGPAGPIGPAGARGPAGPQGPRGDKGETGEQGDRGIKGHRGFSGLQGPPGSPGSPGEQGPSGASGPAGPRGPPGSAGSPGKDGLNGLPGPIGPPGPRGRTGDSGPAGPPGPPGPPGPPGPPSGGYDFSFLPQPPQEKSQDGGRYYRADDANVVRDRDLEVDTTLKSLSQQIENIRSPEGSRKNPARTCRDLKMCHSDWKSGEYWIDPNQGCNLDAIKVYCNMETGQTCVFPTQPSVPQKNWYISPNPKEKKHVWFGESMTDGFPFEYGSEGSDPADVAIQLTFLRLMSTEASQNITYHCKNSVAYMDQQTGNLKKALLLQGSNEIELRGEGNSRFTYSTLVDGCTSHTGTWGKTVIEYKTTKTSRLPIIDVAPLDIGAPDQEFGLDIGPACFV
UniProt P02769, residues 25-607: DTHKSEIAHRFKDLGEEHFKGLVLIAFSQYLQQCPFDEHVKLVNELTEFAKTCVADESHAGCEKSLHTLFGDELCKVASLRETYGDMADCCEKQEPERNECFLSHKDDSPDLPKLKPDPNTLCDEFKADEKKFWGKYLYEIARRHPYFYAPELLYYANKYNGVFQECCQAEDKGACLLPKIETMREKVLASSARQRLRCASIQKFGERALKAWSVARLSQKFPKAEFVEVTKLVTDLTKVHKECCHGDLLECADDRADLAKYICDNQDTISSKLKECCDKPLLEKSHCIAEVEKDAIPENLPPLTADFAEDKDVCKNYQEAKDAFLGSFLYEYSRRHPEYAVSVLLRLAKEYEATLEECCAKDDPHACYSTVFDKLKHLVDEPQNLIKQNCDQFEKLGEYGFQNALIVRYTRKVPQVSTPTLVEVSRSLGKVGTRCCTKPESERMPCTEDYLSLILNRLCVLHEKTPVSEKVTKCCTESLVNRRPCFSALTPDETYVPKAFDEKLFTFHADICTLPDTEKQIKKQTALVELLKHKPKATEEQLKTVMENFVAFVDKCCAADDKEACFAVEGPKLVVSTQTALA
UniProt B6A8R8, residues 22-254: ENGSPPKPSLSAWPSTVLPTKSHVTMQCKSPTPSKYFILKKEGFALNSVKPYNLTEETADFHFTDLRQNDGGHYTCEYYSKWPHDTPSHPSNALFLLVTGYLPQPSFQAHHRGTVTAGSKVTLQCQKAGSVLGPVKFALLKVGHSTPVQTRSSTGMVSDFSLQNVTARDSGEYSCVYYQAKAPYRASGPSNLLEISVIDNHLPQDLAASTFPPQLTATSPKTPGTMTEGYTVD

Columns and labels:
[1] = biological target: type I collagen (IC) (UniProt P11087); assay: ELISA; solid-phase binding assay: IC, IIC and BSA (0–10 μg/ml) coated on Maxisorp 96-well plates; Fc-fused proteins (5 μg/ml) in TBS, 0.05% Tween20, 2 mM CaCl2, 0.5% BSA, room temperature 2 h; detected with HRP goat anti-human IgG; both purified
[2] = biological target: bovine serum albumin (BSA) (bovine) (UniProt P02769); assay: condition: BSA coated at 0–10 μg/ml; Fc-fused proteins 5 μg/ml; ELISA; solid-phase binding assay: IC, IIC and BSA (0–10 μg/ml) coated on Maxisorp 96-well plates; Fc-fused proteins (5 μg/ml) in TBS, 0.05% Tween20, 2 mM CaCl2, 0.5% BSA, room temperature 2 h; detected with HRP goat anti-human IgG; both purified

binding [1]: binds
binding [2]: no binding
Substance: TARM1-Fc, a soluble form of TARM1 ectodomain fused with IgG Fc portion (from UniProt B6A8R8 22-254) (Fc fusion)
